PubChem BioAssay AID504774, Drosophila RNAi Screening Center, 2011
Purpose: 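Genes required for cells to withstand methyl methanesulphonate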 (primary screen). Cells: Drosophila Kc167 cells. Knock-down reagent: long dsRNA against Drosophila genes, about 0.25 µg dsRNA per well. Time to read-out: about 6 days: 3 days knock-down, then 3 days with or without MMS. Conditions: methyl methanesulphonate 0.004% (w/v) for 3 days after knock-down. Measured: 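Viability in wells given MMS, read as ATP luminescence, normalised by quantiles plate by plate and averaged across replicates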. Scale: mean viability with MMS and viability with MMS: higher = more surviving cells after MMS.
The deposit covers about 23,000 reagents; this is an unselected part of those with a known target gene and a result. 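Values are quantile-normalised luminescence on an arbitrary scale; higher means more cells surviving MMS.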 The numbers tell different reagents against one gene apart. Names joined by + are all predicted targets of the reagent.

| Gene | reagent no. | mean viability with MMS | viability with MMS, replicate 1 | viability with MMS, replicate 2 |
| --- | --- | --- | --- | --- |
| CG34115 | 1 | 3.60e6 | 4.05e6 | 4.10e6 |
| CG9826 | 1 | 3.66e6 | 4.07e6 | 4.22e6 |
| CG3038 | 1 | 3.51e6 | 4.01e6 | 3.95e6 |
| CG14610 + asRNA:CR42738 | 1 | 3.55e6 | 4.10e6 | 3.97e6 |
| CG31975 + ovm | 1 | 3.35e6 | 3.76e6 | 3.76e6 |
| Josd | 1 | 3.53e6 | 3.99e6 | 4.03e6 |
| Ac78C | 1 | 3.72e6 | 4.21e6 | 4.21e6 |
| Ac78C | 2 | 3.56e6 | 4.00e6 | 4.06e6 |
| Ac78C | 3 | 3.55e6 | 3.95e6 | 4.09e6 |
| Atf6 | 1 | 3.54e6 | 3.99e6 | 4.05e6 |
| Atf6 | 2 | 3.71e6 | 4.21e6 | 4.17e6 |
| CG2444 | 1 | 3.62e6 | 4.03e6 | 4.16e6 |
| vsg | 1 | 3.49e6 | 3.88e6 | 4.02e6 |
| CG14606 | 1 | 3.63e6 | 4.17e6 | 4.04e6 |
| CG7857 | 1 | 3.46e6 | 3.85e6 | 3.96e6 |
| FRG1 | 1 | 3.69e6 | 4.17e6 | 4.12e6 |
| qm | 1 | 3.71e6 | 4.29e6 | 4.11e6 |
| CG17687 | 1 | 3.60e6 | 3.96e6 | 4.15e6 |
| Nup75 | 1 | 3.17e6 | 3.66e6 | 3.70e6 |
| MED8 | 1 | 3.44e6 | 4.03e6 | 3.74e6 |
| nclb | 1 | 3.42e6 | 3.89e6 | 3.89e6 |
| CG15140 | 1 | 3.66e6 | 4.05e6 | 4.19e6 |
| CG9101 | 1 | 3.51e6 | 4.07e6 | 3.88e6 |
| eIF2beta | 1 | 3.18e6 | 3.57e6 | 3.56e6 |
| CG12617 | 1 | 3.52e6 | 3.86e6 | 4.12e6 |
| CG33958 | 1 | 3.57e6 | 4.06e6 | 4.04e6 |
| CG33958 | 2 | 3.58e6 | 4.03e6 | 4.08e6 |
| Mlh1 | 1 | 3.58e6 | 4.07e6 | 4.05e6 |
| Alg10 | 1 | 3.58e6 | 4.01e6 | 4.09e6 |
| BomBc2 | 1 | 3.56e6 | 4.08e6 | 3.98e6 |
| SPoCk | 1 | 3.53e6 | 3.93e6 | 4.05e6 |
| SPoCk | 2 | 3.33e6 | 3.75e6 | 3.75e6 |
| SPoCk | 3 | 3.54e6 | 3.99e6 | 4.03e6 |
| SPoCk | 4 | 3.48e6 | 3.97e6 | 3.90e6 |
| EndoB | 1 | 3.39e6 | 3.76e6 | 3.88e6 |
| mei-9 | 1 | 3.44e6 | 4.05e6 | 3.76e6 |
| hppy | 1 | 3.52e6 | 4.04e6 | 3.93e6 |
| hppy | 2 | 3.55e6 | 4.12e6 | 3.92e6 |
| hppy | 3 | 3.53e6 | 3.98e6 | 4.01e6 |
| l(3)neo38 | 1 | 3.48e6 | 3.99e6 | 4.05e6 |
| l(3)neo38 | 2 | 3.55e6 | 4.04e6 | 4.02e6 |
| l(3)neo38 | 3 | 3.42e6 | 3.87e6 | 3.91e6 |
| mtsh | 1 | 3.47e6 | 3.95e6 | 3.91e6 |
| CG42361 | 1 | 3.57e6 | 4.15e6 | 3.95e6 |
| faf | 1 | 3.84e6 | 4.48e6 | 4.22e6 |
| RunxB | 1 | 3.49e6 | 3.95e6 | 4.00e6 |
| RunxB | 2 | 3.54e6 | 3.95e6 | 4.10e6 |
| RunxB | 3 | 2.99e6 | 3.67e6 | 3.67e6 |
| RunxB | 4 | 3.50e6 | 3.95e6 | 4.03e6 |
| osk | 1 | 3.68e6 | 4.26e6 | 4.10e6 |
| Ugt36A1 | 1 | 3.67e6 | 4.09e6 | 4.17e6 |
| CG5355 | 1 | 3.66e6 | 4.45e6 | 3.90e6 |
| Pgant35A | 1 | 3.48e6 | 4.12e6 | 3.89e6 |
| beat-IIa | 1 | 3.76e6 | 4.05e6 | 4.47e6 |
| beat-IIa | 2 | 3.56e6 | 3.96e6 | 4.13e6 |
| lectin-21Ca | 1 | 3.56e6 | 4.11e6 | 3.96e6 |
| stau | 1 | 3.53e6 | 3.86e6 | 4.14e6 |
| CG30010 | 1 | 3.45e6 | 4.02e6 | 3.78e6 |
| dhd | 1 | 3.65e6 | 4.02e6 | 4.12e6 |
| CG3280 (retired record) | 1 | 3.54e6 | 3.93e6 | 4.11e6 |
| RpL27 | 1 | 2.95e6 | 3.60e6 | 3.61e6 |
| nmd | 1 | 3.55e6 | 4.16e6 | 3.91e6 |
| cactin | 1 | 3.39e6 | 3.86e6 | 3.82e6 |
| CG5402 | 1 | 3.54e6 | 3.91e6 | 4.11e6 |
| E(spl)mgamma-HLH | 1 | 3.41e6 | 3.79e6 | 3.89e6 |
| SCAR | 1 | 3.48e6 | 4.25e6 | 3.66e6 |
| NetB | 1 | 3.54e6 | 3.93e6 | 4.05e6 |
| CG5554 | 1 | 3.30e6 | 3.74e6 | 3.61e6 |

Part of the list above in another layout:
Gene,reagent no.,mean viability with MMS,"viability with MMS, replicate 1","viability with MMS, replicate 2"
CG2444,1,3.62e6,4.03e6,4.16e6
vsg,1,3.49e6,3.88e6,4.02e6
CG14606,1,3.63e6,4.17e6,4.04e6
